What was measured:
[1] = Compatibility (permanence) test of plasticized PVC films, 70 °C, 100% rel. humidity, gravimetric and visual; set-up: key: 0: trockener Griff, die Folie ist glatt und trocken (beste Verträglichkeit); 1: stumpfer Griff, die Folie ist noch trocken, eine geringe Weichmachermenge befindet sich auf der Oberfläche und ergibt einen stumpfen Griff. Fingerspuren sind sichtbar; 2: klebriger Griff, es ist schon merklich Weichmacher an der Oberfläche ausgetreten, Fingerspuren sind leicht und deutlich zu erkennen; 3: schwacher, trockener Belag; mit bloßem Auge erkennbar; 4: schwacher, flüssiger oder schmieriger Belag; 5: starker trockener Belag; 6: starker schmieriger Belag; conditions: 100% rel. Feuchtigkeit
[2] = Film volatility of plasticized PVC films (weight loss, 130 °C, 24 h); conditions: 60 phr plasticizer
[3] = Cold crack temperature of plasticized PVC films (based on draft DIN 53372); conditions: PVC film, 60 phr plasticizer

## CCCCC(CC)COC(=O)CCC(=O)CCC(=O)OCC(CC)CCCC (stereo not drawn) [4-Oxoheptandisäure-di-(2-ethylhexylester), reference compound]
[1]; Nach 3 Tagen
  Visuelle Beurteilung: 1
[2]
  Folienflüchtigkeit: 2,4%
[3]
  Kältebruchtemperatur: -45 °C

## 4-Oxoheptandisäure-di-isotridecylester [Verbindung I.6]
[1]; Nach 1 Tag
  Visuelle Beurteilung: 6
[1]; Nach 3 Tagen
  Visuelle Beurteilung: 6
[1]; Nach 7 Tagen
  Visuelle Beurteilung: 6
[1]; Nach 14 Tagen
  Visuelle Beurteilung: 6
[1]; Nach 28 Tagen
  Visuelle Beurteilung: 6
[2]
  Folienflüchtigkeit: 0,67%
[3]
  Kältebruchtemperatur: -48 °C

## CCCCCC(CCC)COC(=O)CCC(=O)CCC(=O)OCC(CCC)CCCCC (stereo not drawn) [Verbindung I.1, 4-Oxoheptandisäure-di-(2-propylheptylester)]
[1]; Nach 1 Tag
  Visuelle Beurteilung: 2
[1]; Nach 3 Tagen
  Visuelle Beurteilung: 2
[1]; Nach 7 Tagen
  Visuelle Beurteilung: 2
[1]; Nach 14 Tagen
  Visuelle Beurteilung: 2
[1]; Nach 28 Tagen
  Visuelle Beurteilung: 4
[2]
  Folienflüchtigkeit: 0,77%
[3]
  Kältebruchtemperatur: -43 °C

## CC(C)CCCC(C)CCOC(=O)CCC(=O)CCC(=O)OCCC(C)CCCC(C)C (stereo not drawn) [Verbindung I.2, 4-Oxoheptandisäure-di-(3,7-dimethyloctylester)]
[1]; Nach 1 Tag
  Visuelle Beurteilung: 2
[1]; Nach 3 Tagen
  Visuelle Beurteilung: 4
[1]; Nach 7 Tagen
  Visuelle Beurteilung: 4
[1]; Nach 14 Tagen
  Visuelle Beurteilung: 4
[1]; Nach 28 Tagen
  Visuelle Beurteilung: 6
[2]
  Folienflüchtigkeit: 0,93%
[3]
  Kältebruchtemperatur: -43 °C

— patent EP4638411B1, “PLASTICIZER” (priority 2022, dated 2024)
